Data as given in PubChem BioAssay AID1117269 (University of Michigan, 2014)

Screen: 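Kinases whose silencing alters a TGF-beta responsive luciferase reporter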 (primary screen)
Cell system: human A549 lung cancer and 1833 breast cancer (MDA-MB-231-derived) cell lines carrying a stable BTR luciferase reporter
Knock-down reagent: siRNA pool against human genes
Duration: 72 h after transfection, then 1 h TGF-beta before the read
Conditions: TGF-beta 10 ng/mL added one hour before luciferin and read-out
Detection: 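BTR reporter bioluminescence as fold change relative to non-targeting siRNA, averaging triplicates per line; knockdown for 72 h, then TGF-beta at 10 ng/mL 1 h prior to reading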
Reading the numbers: fold over scrambled siRNA, A549 and fold over scrambled siRNA, 1833: higher = more reporter light, weaker TGF-beta receptor signalling
Hit rule: 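Active if a hit in A549 or 1833; a line's hit exceeds an upper quartile-based cutoff on mean log fold values, applied per plate and across the whole screen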
Meaning of the calls: active = hit in at least one line; inactive = hit in neither line
Shown is a random part of 714 reagents. 49 of them (6.9%) were called active. 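Active means a hit in at least one line; per-line hit columns show which; some siRNA pools appear more than once.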 Unmarked entries are inactive. Some reagents were tested in more than one well and are listed for each. The record does not give: the amount of reagent.

gene | fold over scrambled siRNA, A549 | fold over scrambled siRNA, 1833 | hit in A549 | hit in 1833
MYLK3 | 4.84 | 5.47 | not a hit in A549 | not a hit in 1833
MET | 3.52 | 0.593 | not a hit in A549 | not a hit in 1833
CDC42BPB | 4.96 | 2.76 | not a hit in A549 | not a hit in 1833
NEK9 | 1.94 | 0.81 | not a hit in A549 | not a hit in 1833
ALPK3 | 3.71 | 5.76 | not a hit in A549 | not a hit in 1833
NEK10 | 1.06 | 1.67 | not a hit in A549 | not a hit in 1833
SYK | 0.905 | 1.4 | not a hit in A549 | not a hit in 1833
TNIK | 3.76 | 5.87 | not a hit in A549 | not a hit in 1833
PRKCZ | 0.86 | 4 | not a hit in A549 | not a hit in 1833
CSNK1A1L | 1.08 | 4.1 | not a hit in A549 | not a hit in 1833
POMK | 1.79 | 2.33 | not a hit in A549 | not a hit in 1833
POMK | 1.03 | 3.53 | not a hit in A549 | not a hit in 1833
RIPK1 | 2.3 | 2.67 | not a hit in A549 | not a hit in 1833
TRIB3 | 2.37 | 5.08 | not a hit in A549 | not a hit in 1833
NEK8 | 0.86 | 2.4 | not a hit in A549 | not a hit in 1833
ERN1 | 0.631 | 0.683 | not a hit in A549 | not a hit in 1833
DAPK1 | 1.57 | 1.29 | not a hit in A549 | not a hit in 1833
THNSL1 | 3.52 | 4.9 | not a hit in A549 | not a hit in 1833
CHKA | 0.898 | 1.63 | not a hit in A549 | not a hit in 1833
TRPM6 | 3.02 | 2.07 | not a hit in A549 | not a hit in 1833
MAPK4 | 3.95 | 6.51 | not a hit in A549 | not a hit in 1833
ADCK2 | 1.13 | 1.33 | not a hit in A549 | not a hit in 1833
MPP3 | 0.952 | 0.905 | not a hit in A549 | not a hit in 1833

2 entries from above, arranged by “fold over scrambled siRNA, A549”, low to high.
gene | fold over scrambled siRNA, A549 | fold over scrambled siRNA, 1833 | hit in A549 | hit in 1833
NEK9 | 1.94 | 0.81 | not a hit in A549 | not a hit in 1833
CDC42BPB | 4.96 | 2.76 | not a hit in A549 | not a hit in 1833
